The record followed here is article PMC3759449.

Amino acid sequences for entries named in this document (tags omitted). Residues count along the entry.
UniProt Q810U4, residues 30-1256: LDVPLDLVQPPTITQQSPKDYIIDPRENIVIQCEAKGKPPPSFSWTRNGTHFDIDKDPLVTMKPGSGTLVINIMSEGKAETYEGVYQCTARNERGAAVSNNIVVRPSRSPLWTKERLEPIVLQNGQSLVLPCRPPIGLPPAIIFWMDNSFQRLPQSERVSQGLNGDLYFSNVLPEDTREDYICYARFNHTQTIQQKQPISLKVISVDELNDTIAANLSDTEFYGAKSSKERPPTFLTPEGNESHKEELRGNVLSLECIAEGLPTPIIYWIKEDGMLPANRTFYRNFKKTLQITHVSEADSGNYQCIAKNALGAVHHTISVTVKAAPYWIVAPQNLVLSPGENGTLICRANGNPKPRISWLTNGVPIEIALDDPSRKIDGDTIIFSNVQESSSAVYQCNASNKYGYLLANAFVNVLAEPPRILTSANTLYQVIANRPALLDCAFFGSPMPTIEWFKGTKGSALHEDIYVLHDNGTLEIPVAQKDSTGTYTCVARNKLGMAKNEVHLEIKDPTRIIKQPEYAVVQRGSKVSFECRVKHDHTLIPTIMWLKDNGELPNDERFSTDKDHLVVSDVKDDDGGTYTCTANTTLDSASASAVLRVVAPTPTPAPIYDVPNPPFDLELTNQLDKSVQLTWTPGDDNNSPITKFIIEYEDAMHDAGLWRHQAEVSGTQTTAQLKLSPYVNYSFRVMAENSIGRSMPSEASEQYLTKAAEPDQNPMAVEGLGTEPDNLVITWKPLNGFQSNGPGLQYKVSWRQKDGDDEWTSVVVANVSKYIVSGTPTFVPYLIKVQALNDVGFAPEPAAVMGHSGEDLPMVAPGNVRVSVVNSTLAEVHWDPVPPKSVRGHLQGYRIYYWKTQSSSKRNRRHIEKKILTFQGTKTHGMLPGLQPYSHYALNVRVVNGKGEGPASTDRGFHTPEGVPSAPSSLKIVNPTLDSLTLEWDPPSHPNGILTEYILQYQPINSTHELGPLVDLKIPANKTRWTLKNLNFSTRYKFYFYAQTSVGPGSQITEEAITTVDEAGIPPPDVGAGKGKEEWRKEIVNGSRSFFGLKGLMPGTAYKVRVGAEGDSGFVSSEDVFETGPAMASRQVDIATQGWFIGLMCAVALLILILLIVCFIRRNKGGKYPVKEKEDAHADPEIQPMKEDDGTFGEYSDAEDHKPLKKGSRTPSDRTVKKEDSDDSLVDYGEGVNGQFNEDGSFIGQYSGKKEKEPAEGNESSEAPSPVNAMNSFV
UniProt P54763, residues 19-986: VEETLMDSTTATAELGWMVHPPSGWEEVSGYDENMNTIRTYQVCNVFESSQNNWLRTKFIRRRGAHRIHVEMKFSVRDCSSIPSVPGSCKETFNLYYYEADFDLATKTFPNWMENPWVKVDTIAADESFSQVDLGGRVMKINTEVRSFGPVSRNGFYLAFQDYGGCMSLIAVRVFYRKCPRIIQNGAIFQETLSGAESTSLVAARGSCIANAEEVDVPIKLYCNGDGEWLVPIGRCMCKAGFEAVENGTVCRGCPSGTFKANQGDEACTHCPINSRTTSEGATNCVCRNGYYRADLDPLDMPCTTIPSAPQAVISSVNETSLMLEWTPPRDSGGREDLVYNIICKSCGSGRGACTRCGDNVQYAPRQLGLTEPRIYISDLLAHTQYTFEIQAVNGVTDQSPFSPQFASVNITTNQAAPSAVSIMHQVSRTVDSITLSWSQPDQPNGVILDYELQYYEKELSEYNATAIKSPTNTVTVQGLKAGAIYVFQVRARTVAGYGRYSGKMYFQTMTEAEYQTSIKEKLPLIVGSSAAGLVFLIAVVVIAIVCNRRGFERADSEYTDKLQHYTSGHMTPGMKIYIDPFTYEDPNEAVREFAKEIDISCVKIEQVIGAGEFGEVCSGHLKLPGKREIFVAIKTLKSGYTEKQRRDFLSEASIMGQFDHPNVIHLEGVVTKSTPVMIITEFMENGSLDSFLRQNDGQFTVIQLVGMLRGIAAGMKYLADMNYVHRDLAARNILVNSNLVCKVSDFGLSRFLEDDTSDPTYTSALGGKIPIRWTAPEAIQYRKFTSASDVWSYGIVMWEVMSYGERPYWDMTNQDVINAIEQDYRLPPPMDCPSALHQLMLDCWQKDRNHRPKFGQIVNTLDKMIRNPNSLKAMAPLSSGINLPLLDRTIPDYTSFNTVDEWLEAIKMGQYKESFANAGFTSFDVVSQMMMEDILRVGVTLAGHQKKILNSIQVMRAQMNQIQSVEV
UniProt P54754, residues 30-993: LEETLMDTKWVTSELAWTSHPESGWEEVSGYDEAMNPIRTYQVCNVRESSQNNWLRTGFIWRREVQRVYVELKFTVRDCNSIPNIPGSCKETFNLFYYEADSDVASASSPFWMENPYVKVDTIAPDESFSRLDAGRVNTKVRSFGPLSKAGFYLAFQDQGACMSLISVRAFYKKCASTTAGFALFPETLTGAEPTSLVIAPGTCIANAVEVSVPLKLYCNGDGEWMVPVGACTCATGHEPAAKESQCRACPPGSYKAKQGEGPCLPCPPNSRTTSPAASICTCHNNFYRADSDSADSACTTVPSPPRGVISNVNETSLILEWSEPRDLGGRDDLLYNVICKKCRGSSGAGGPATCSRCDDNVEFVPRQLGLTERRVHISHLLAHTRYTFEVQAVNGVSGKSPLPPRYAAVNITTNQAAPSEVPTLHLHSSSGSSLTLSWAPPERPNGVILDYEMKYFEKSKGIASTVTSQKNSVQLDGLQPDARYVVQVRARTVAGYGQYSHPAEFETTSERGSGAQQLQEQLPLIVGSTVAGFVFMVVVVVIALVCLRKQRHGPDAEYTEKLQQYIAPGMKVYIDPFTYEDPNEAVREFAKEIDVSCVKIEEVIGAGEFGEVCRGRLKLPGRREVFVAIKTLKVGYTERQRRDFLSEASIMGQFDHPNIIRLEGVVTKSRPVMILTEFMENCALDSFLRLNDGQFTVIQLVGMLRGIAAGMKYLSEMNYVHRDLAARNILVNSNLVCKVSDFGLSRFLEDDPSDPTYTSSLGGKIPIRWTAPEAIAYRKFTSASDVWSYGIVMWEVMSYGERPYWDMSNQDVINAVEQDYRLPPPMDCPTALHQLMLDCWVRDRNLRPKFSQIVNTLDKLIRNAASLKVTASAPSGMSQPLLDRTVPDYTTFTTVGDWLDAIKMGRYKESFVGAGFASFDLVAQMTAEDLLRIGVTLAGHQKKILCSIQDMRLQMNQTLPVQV
UniProt Q8CBF3, residues 18-984: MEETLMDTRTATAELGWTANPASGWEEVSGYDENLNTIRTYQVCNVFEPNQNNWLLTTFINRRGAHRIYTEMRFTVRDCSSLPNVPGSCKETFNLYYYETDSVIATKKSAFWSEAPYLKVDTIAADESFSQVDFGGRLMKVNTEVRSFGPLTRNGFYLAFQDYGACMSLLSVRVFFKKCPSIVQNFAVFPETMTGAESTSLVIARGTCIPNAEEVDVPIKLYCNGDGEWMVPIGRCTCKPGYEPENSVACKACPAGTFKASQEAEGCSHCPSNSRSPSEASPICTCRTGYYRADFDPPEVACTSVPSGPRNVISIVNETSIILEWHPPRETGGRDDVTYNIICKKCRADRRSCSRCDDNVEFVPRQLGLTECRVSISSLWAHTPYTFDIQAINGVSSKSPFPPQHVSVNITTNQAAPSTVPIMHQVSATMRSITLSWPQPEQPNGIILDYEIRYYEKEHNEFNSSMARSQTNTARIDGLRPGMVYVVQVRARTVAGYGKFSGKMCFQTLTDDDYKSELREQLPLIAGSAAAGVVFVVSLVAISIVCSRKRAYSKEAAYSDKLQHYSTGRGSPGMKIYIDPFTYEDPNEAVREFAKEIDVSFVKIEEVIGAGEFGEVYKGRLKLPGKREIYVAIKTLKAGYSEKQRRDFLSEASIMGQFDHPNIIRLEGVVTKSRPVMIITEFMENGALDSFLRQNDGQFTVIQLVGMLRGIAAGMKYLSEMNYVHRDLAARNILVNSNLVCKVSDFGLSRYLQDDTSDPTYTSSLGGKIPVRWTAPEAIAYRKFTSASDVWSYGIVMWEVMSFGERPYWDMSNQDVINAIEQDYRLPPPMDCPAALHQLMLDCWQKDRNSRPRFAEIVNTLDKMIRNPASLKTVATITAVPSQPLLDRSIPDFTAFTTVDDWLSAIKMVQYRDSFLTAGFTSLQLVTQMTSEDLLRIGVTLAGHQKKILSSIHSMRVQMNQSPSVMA

No constants are given. Whether binding was seen depends on the method and setting. In cells and extracts the contact can be indirect. Some results given as binding are weak or reduced against the parent protein; the word gives no strength.

This test addresses NrCAM (Neuron-glial related cell adhesion molecule), mouse (mouse) (UniProt Q810U4). In words: co-IP; RIPA lysates (500 ug) of co-transfected HEK293T cells immunoprecipitated with rabbit anti-NrCAM (Abcam ab24344) for 2 h at 4°C, protein A/G-Sepharose, RIPA washes; blots reprobed with anti-EphB2 or anti-HA.
Take “EphB2 (not HA-tagged) (from UniProt P54763 19-986) (receptor)”: the binding entry is given as “binds”.
Under “EphB3 with HA tag, mouse (from UniProt P54754 30-993) (receptor)” stands “binds”; under “EphB1 with a hemagglutinin epitope (HA) tag, mouse (from UniProt Q8CBF3 18-984) (receptor)”, “binds”.
